This note sets out measurements from publication PMC3599385.

These are yes or no findings as the source states them, for the method shown. In cells and extracts the contact can be indirect. A result given as binding can be weak or reduced; the word gives no strength. Sequences can lack the tags named with a protein.

This assay addresses MBP:SUB (full length STRUBBELIG fused to maltose-binding protein) (Arabidopsis thaliana). In words: pull-down; MBP-tagged proteins held on amylose resin, incubated with equal amounts of GST:AN lysate for 4 hours at 4°C; western blot with anti-AN antibody; only the target purified. A general note: In western blotting, separated proteins are transferred to a membrane and probed.

B1: GST:AN (fusion of glutathione-S-transferase to ANGUSTIFOLIA) (protein, UniProt O23702 1-636)
chain: MSKIRSSATMPHRDQPSPASPHVVTLNCIEDCALEQDSLAGVAGVEYVPLSRIADGKIESATAVLLHSLAYLPRAAQRRLRPHQLILCLGSADRAVDSTLAADLGLRLVHVDTSRAEEIADTVMALILGLLRRTHLLSRHALSASGWLGSLQPLCRGMRRCRGMVLGIVGRSVSARYLASRSLAFKMSVLYFDVPEGDEERIRPSRFPRAARRMDTLNDLLAASDVISLHCALTNDTVQILNAECLQHIKPGAFLVNTGSCQLLDDCAVKQLLIDGTIAGCALDGAEGPQWMEAWVKEMPNVLILPRSADYSEEVWMEIREKAISILHSFFLDGVIPSNTVSDEEVEESEASEEEEQSPSKHEKLAIVESTSRQQGESTLTSTEIVRREASELKESLSPGQQHVSQNTAVKPEGRRSRSGKKAKKRHSQQKYMQKTDGSSGLNEESTSRRDDIAMSDTEEVLSSSSRCASPEDSRSRKTPLEVMQESSPNQLVMSSKKFIGKSSELLKDGYVVALYAKDLSGLHVSRQRTKNGGWFLDTLSNVSKRDPAAQFIIAYRNKDTVGLRSFAAGGKLLQINRRMEFVFASHSFDVWESWSLEGSLDECRLVNCRNSSAVLDVRVEILAMVGDDGITRWID
On to B1, for which the binding entry was “binds”.
